Reference: PubChem BioAssay AID1347423 (Functional Genomics Laboratory (NCATS/FGL), 2020)
The campaign covered roughly 52,000 sequences. About 210 (0.4%) were called active.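 The calls were made as follows: active = gene whose silencing raises cell survival under the drug, median off-target-corrected z-score across its silencing RNAs 2 or more; inactive = the rest.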 The list shows a part of the results.

Assay: Resistance to Poly (ADP-Ribose) Polymerase inhibitor: Gene Identification via Genome-wide siRNA Screen
Settings: mouse BRCA2 R2336H ES cells, olaparib, CellTiter-Glo viability; stronger effect = higher value
Procedure, shortened: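 Mouse BRCA2 R2336H ES cells were reverse-transfected with siRNA (20 nM final), treated at 48 h with 500 nM olaparib, and read by CellTiter-Glo after 72 h. Scores: MAD-based z per siRNA, median per gene, seed off-target correction.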

| Sequence | z-score |
| --- | --- |
| GCAACACGGCGGAAUAAAGTT against ORF19 | inactive: -1.47 |
| GCCUGUAAAGGUGGCUAAGTT against Narfl | inactive: -2.5 |
| CGGUUAAAUGAUUUUGCUATT against Cox5a | inactive: 0.302 |
| GGCAUUUUCAUGUGCUUUGTT against Wdhd1 | inactive: -0.517 |
| CCAUGUUCCUGGCAUAUAUTT against Opn4 | inactive: -0.921 |
| GGAGAACAGCAGCCUUUGUTT against 1100001D10Rik | inactive: -3.17 |
| GGUCGGCAAUAUCCUAUUUTT against BC017545 | inactive: -1.57 |
| GGGUUGUGGCUGCUACUAUTT against Pira2 | inactive: -0.681 |
| CCAGACUCCUCUUAGAAGGTT against B230218L05Rik | inactive: 1.12 |
| GGAAAUUCAAAAGACGCAGTT against Orm2 | inactive: 0.966 |
| CGAGCUUCGGAGGAAGUGATT against B130055L09Rik | inactive: -0.998 |
| GGAACUUGAAAUCGUAAUUTT against 2010012C16Rik | inactive: -0.433 |
| GCAAGCCAAAUUGUCCCGGTT against Usp39 | inactive: 1.89 |
| GGUAUUGAUGCCAAAUUAATT against Plekha5 | inactive: 0.35 |
| GGAACAAAUUAGAAUAGCUTT against Rnf11 | inactive: 0.416 |
| GGACAACAUUGACAAGUUCTT against Clcn7 | inactive: -0.436 |
| GGUCUUUUGGAAUCUCUGGTT against Crip3 | active: 1.26 |
| GGCCAGUUACUUUCUGAAATT against 1110019I14Rik | inactive: 1.21 |
| GGAGGUUCGGCUAAAACUGTT against BC005624 | inactive: -0.664 |
| GGAUGUGACAUGAAUCCUGTT against 8430438L13Rik | inactive: 1.24 |
| GGAGUUAAAACCAUCGUGATT against D16Ertd472e | inactive: 0.636 |
| GGACGAAUUUGAGGAAAUATT against Lrp4 | inactive: -1.81 |

A portion from further up, as a working copy:

| Sequence | z-score |
| --- | --- |
| GGAACAAAUUAGAAUAGCUTT against Rnf11 | inactive: 0.416 |
| GGACAACAUUGACAAGUUCTT against Clcn7 | inactive: -0.436 |
| GGUCUUUUGGAAUCUCUGGTT against Crip3 | active: 1.26 |
| GGCCAGUUACUUUCUGAAATT against 1110019I14Rik | inactive: 1.21 |

Next results follow:

| Sequence | z-score |
| --- | --- |
| GUAACCAGUUCUUCUCUGUTT against V1rc18 | inactive: -1.61 |
| GGCAACUGAAAUGUUUGUUTT against Rap2c | inactive: 0.0562 |
| GGAGAGGUAGACUUCCUGUTT against BC030396 | inactive: 1.89 |
| GGAAAAUCUUCUAUCGAACTT against BC012016 | inactive: -0.0839 |
| GGGAAAUAACGAAUUUCAGTT against Zfp292 | inactive: -0.131 |
| GGAUGCAAUGGCUGAGAAGTT against Pth | inactive: -1.34 |
| CCAUUCACAUUGUGUCAAATT against 2310002B14Rik | inactive: 0.035 |
| GGAAUUUGUGAUCAGCGACTT against Cotl1 | inactive: 0.356 |
| GGAGCUAUGCAGAGGAGUATT against BC019755 | inactive: 0.432 |
| GCUCUUCAACGAUUGUGGGTT against Clcn4-2 | inactive: 0.589 |
| GCACAUAGCCGACACCUACTT against 2700067E09Rik | inactive: 1.06 |
| GCGCGCAGUGAACGAAAAATT against Nmyc1 | inactive: -0.186 |
| GGUGAAGUAUGGCAACAUGTT against Unc93b | inactive: -0.24 |
| CCGCCAUAGGCUCCUUCAATT against Acat3 | inactive: 0.0301 |
| GUACUCUUCCUCACUGGGUTT against A230078I05Rik | inactive: 0.861 |
| CCACAUAAGUGGCUUAUCATT against Slc35d2 | inactive: 1.61 |
| GGCAUGACUUCAUCGAGACTT against Kua | inactive: 0.0577 |
| GGAGAUUUCUUCCAUGGUCTT against Hspa2 | inactive: -0.265 |
| GGAGAUGUGUGCUAUGUGGTT against Gzmb | inactive: -1.14 |
| GGUUAUCAAGAUUGCAUGUTT against Olfr853 | inactive: 0.0966 |
| CGGAAGCCUCCACAAAUAATT against Apba1 | inactive: -2.8 |
| GGUUUCGGUGGAAGUCGUATT against AI480556 | inactive: -0.603 |

| Sequence | z-score |
| --- | --- |
| AGGAAACAGCACCUUGUUGTT against Olfr205 | inactive: 0.994 |
| CCUUUGGCAACAUCGUUUATT against Arrdc4 | inactive: -0.137 |
| CCACUAUCAUUAUUUAUGCTT against A630026F04 | inactive: 0.0993 |
| GCAGCUACUACACCAACCATT against Dlx2 | inactive: 0.511 |
| GGAACAUCCAUGUAUUCAATT against Ube2l3 | inactive: 3.63 |
| GGGCCUCUUCAUCUUUCUCTT against E230012M21 | inactive: 0.587 |
| GGGUUAUCUCUUAAUGGCATT against Fundc1 | inactive: 3.26 |
| GGUGGGCUUUCAGUGCUACTT against BC005764 | inactive: -0.928 |
| GGUCACUUCAUCCAUAGCUTT against BC060631 | inactive: 0.547 |
| GGCGGUGAAGUCUAAGGCATT against Hist1h1b | inactive: -0.72 |
| GGUGACUAGGAAGAACACGTT against 2310004K06Rik | inactive: 0.174 |
| GGUUUUGGUAUCUCCAUGGTT against Olfr2 | inactive: 0.121 |
| GGGUCUUUGUCAGACAAGCTT against Sftpc | inactive: 0.37 |
| CCAUGCUAUUCUGGUUUCATT against Tas2r138 | inactive: -0.612 |
| GGUUGAGUGUCUUUUCUGCTT against Krt1-4 | inactive: -0.743 |
| GGUUUGCCUAUUUUUUCUUTT against Rg9mtd1 | inactive: 1.16 |
| CCCAAACGUGGAAGGACCUTT against Sgk2 | inactive: -0.248 |
| GCUGUUAGACCUCUUGAUUTT against Olfr1164 | inactive: 0.111 |
| GUGCAAGGUGUAUGAAUCUTT against Cldn5 | inactive: 3.3 |
| GCGGCUAAUUUGCACUCGUTT against Jtb | inactive: -1.9 |
| CCAUACGAAAAAAACUGUCTT against Nfasc | inactive: 0.491 |
| CGAAAUCGCGUUAUUUUCUTT against Rora | inactive: 0.363 |
